Assay results as given in the supplement of paper PMC3682954.
Structures can show the parent of a compound that is named as a salt. ± gives the standard deviation of the averaged measurements. Some of the results follow. Repeats are few or missing, and single values can be far off.

Tested on: RAW 264.7
Experiment: HMGB1-induced TNF-alpha production relative to HMGB1-stimulated control; higher = more TNF-alpha secretion (less inhibition)
Details: stimulus: HMGB1 5 ug/ml, 18 h
[1] = compound concentration: 1 ug/ml

SMILES	HMGB1-induced TNF-alpha production (compound concentration: 3 uM)	HMGB1-induced TNF-alpha production [1]
O=P(O)(O)C(Cl)(Cl)P(=O)(O)O [Clodronate]	103 ± 9.3%	
O=P(O)(O)C(Cl)(Cl)P(=O)(O)O [Clodronic acid]	104%	
CCC1=C(C)CN(C(=O)NCCc2ccc(S(=O)(=O)NC(=O)N[C@H]3CC[C@H](C)CC3)cc2)C1=O [Glimepiride]	98.2 ± 2.4%	
CCC1=C(C)CN(C(=O)NCCc2ccc(S(=O)(=O)NC(=O)N[C@H]3CC[C@H](C)CC3)cc2)C1=O	90.4%	
CCCCn1c(=O)c2c(ncn2CC(C)=O)n(CCCC)c1=O [Denbufylline]	59.7%	
COc1ccc2cc1Oc1ccc(cc1)C[C@H]1c3cc(c(OC)cc3CCN1C)Oc1c(OC)c(OC)cc3c1[C@H](C2)N(C)CC3	87.4%	
COc1ccc2cc1Oc1ccc(cc1)C[C@H]1c3cc(c(OC)cc3CCN1C)Oc1c(OC)c(OC)cc3c1[C@H](C2)N(C)CC3 [(S,S)-(+)-Tetrandrine]		87.8%
CN1CCC(OC(c2ccccc2)c2ccccc2)CC1	93%	
CN1CCC(OC(c2ccccc2)c2ccccc2)CC1 [Diphenylpyraline hydrochloride]	99.2%	
O=C(Oc1cccc2cccnc12)c1ccccc1	73%	
C/C=C1\[C@H]2C=C(C)C[C@]1(N)c1ccc(=O)[nH]c1C2	98.6%	
C[N+](C)(C)CCO.[Cl-]	78.9%	
Nc1ccc2c3c(cccc13)C(=O)NC2=O [4-Amino-1,8-naphthalimide]	94.3%	
Clc1ccc(Nc2nnc(Cc3ccncc3)c3ccccc23)cc1 [Vatalanib]	87.3 ± 2.2%	
Cc1cc(O)c2c(c1)C(=O)c1cc(O)cc(O)c1C2=O [Emodin]	98%	57.5%
OCC1OC(Oc2ccc3c(c2)OC[C@H]2c4cc5c(cc4O[C@@H]32)OCO5)C(O)C(O)C1O (some centres not stated)		75.5%
CN(C/C=C/C#CC(C)(C)C)Cc1cccc2ccccc12 [Terbinafine]	70.6%	
O=c1[nH]cnc2c1ncn2[C@H]1CC[C@@H](CO)O1 [Didanosine]	91.2 ± 14%	
O=c1[nH]cnc2c1ncn2[C@H]1CC[C@@H](CO)O1	98.3%	
Nc1nc(O)c2ncn(CCC(CO)CO)c2n1 [Penciclovir]	99.4 ± 23%	
Nc1nc(O)c2ncn(CCC(CO)CO)c2n1	105%	
Fc1ccc([C@@H]2CCNC[C@H]2COc2ccc3c(c2)OCO3)cc1 [Paroxetine hydrochloride hemihydrate (MW = 374.83)]	79.3%	
Fc1ccc([C@@H]2CCNC[C@H]2COc2ccc3c(c2)OCO3)cc1	69.3%	
Fc1ccc([C@@H]2CCNC[C@H]2COc2ccc3c(c2)OCO3)cc1 [Paroxetine]	90.4 ± 15%	
Fc1ccc([C@@H]2CCNC[C@H]2COc2ccc3c(c2)OCO3)cc1 [Paroxetine Hydrochloride]	117%	
NC(CO)C(=O)NNCc1ccc(O)c(O)c1O (configuration not stated) [Benserazide]	117%	
NC(CO)C(=O)NNCc1ccc(O)c(O)c1O (configuration not stated)	74.9%	
NC(CO)C(=O)NNCc1ccc(O)c(O)c1O (configuration not stated) [Benserazide hydrochloride]	107 ± 11%	

A run of entries from further up:
SMILES	HMGB1-induced TNF-alpha production (compound concentration: 3 uM)	HMGB1-induced TNF-alpha production [1]
CCC1=C(C)CN(C(=O)NCCc2ccc(S(=O)(=O)NC(=O)N[C@H]3CC[C@H](C)CC3)cc2)C1=O [Glimepiride]	98.2 ± 2.4%	
CCC1=C(C)CN(C(=O)NCCc2ccc(S(=O)(=O)NC(=O)N[C@H]3CC[C@H](C)CC3)cc2)C1=O	90.4%	
CCCCn1c(=O)c2c(ncn2CC(C)=O)n(CCCC)c1=O [Denbufylline]	59.7%	
COc1ccc2cc1Oc1ccc(cc1)C[C@H]1c3cc(c(OC)cc3CCN1C)Oc1c(OC)c(OC)cc3c1[C@H](C2)N(C)CC3	87.4%	
COc1ccc2cc1Oc1ccc(cc1)C[C@H]1c3cc(c(OC)cc3CCN1C)Oc1c(OC)c(OC)cc3c1[C@H](C2)N(C)CC3 [(S,S)-(+)-Tetrandrine]		87.8%

(further entries)

SMILES	HMGB1-induced TNF-alpha production (compound concentration: 3 uM)	HMGB1-induced TNF-alpha production [1]
C[C@H]1COc2c(N3CCN(C)CC3)c(F)cc3c(=O)c(C(=O)O)cn1c23	96.2 ± 11%	
C[C@H]1COc2c(N3CCN(C)CC3)c(F)cc3c(=O)c(C(=O)O)cn1c23 [Levofloxacin]	110%	
Cc1cccc(C(=O)NCN2CCN(c3ccccc3C#N)CC2)c1 [PD 168,077 maleate]	106%	
CN(C)CCCN1c2ccccc2CCc2ccccc21 [Imipramine hydrochloride]	84.8 ± 7.4%	
CN(C)CCCN1c2ccccc2CCc2ccccc21	79.8%	
CN(C)CCCN1c2ccccc2CCc2ccccc21 [Imipramine]	88%	
NCCC[C@H](N)CC(=O)N[C@H]1CNC(=O)[C@H]([C@H]2C[C@H](O)NC(N)=N2)NC(=O)/C(=C/NC(N)=O)NC(=O)[C@H](CO)NC(=O)[C@H](CO)NC1=O [Viomycin sulfate]	121%	
O=C1c2cccc3c2[C@H](CCC3)CN1[C@@H]1CN2CCC1CC2	98.8%	
NCC[C@H](O)C(=O)N[C@@H]1C[C@H](N)[C@@H](O[C@H]2O[C@H](CN)[C@@H](O)[C@H](O)[C@H]2O)[C@H](O)[C@H]1O[C@H]1O[C@H](CO)[C@@H](O)[C@H](N)[C@H]1O	84.5%	
NCC[C@H](O)C(=O)N[C@@H]1C[C@H](N)[C@@H](O[C@H]2O[C@H](CN)[C@@H](O)[C@H](O)[C@H]2O)[C@H](O)[C@H]1O[C@H]1O[C@H](CO)[C@@H](O)[C@H](N)[C@H]1O [Amikacin hydrate]	80.5%	
CC1CC2(C)Oc3ccccc3C3OCC1(COC(=O)Nc1ccccc1)C(C)C32 (configuration not stated)		53.5%
O=C1C(SCCO)=C(SCCO)C(=O)c2ccccc21	12.7%	
COc1cc(/C=C/C(=O)CC(=O)/C=C/c2ccc(O)c(OC)c2)ccc1O [Curcumine]		61.7%
Cc1cc2nc3c(=O)[nH]c(=O)nc-3n(CC(O)C(O)C(O)COP(=O)(O)O)c2cc1C (configuration not stated)	87.1%	
CC(=O)OCC[N+](C)(C)C [Acetylcholine]	112%	
CC(=O)OCC[N+](C)(C)C	87.2%	
CC1(C)CCC2=C(O1)c1ccccc1C(=O)C2=O [beta-Lapachone]	90.4%	
OCCN1C[C@H](O)[C@@H](O)[C@H](O)[C@H]1CO [Miglitol]	62.5%	
OCCN1C[C@H](O)[C@@H](O)[C@H](O)[C@H]1CO	94.3 ± 1.1%	
O=c1cc(O)ccn1[C@@H]1O[C@H](CO)[C@@H](O)[C@H]1O [3-Deazauridine]		65.3%
COc1cc2c(cc1OC)-c1c(OC)c(OC)cc3ccnc(c13)C2=O [Oxoglaucine]		68.2%
Cn1cnc([N+](=O)[O-])c1Sc1ncnc2[nH]cnc12 [Azathioprine]	76.5 ± 8.8%	
Cn1cnc([N+](=O)[O-])c1Sc1ncnc2[nH]cnc12	69.6 ± 14%	
CC(C)C(=O)Nc1ccc([N+](=O)[O-])c(C(F)(F)F)c1	90%	
CC(C)C(=O)Nc1ccc([N+](=O)[O-])c(C(F)(F)F)c1 [Flutamide]	88.2 ± 17%	
O=C(O)CCCC[C@@H]1SC[C@@H]2NC(=O)N[C@@H]21 [Biotin]	80.5%	82.2%
O=C(O)CCCC[C@@H]1SC[C@@H]2NC(=O)N[C@@H]21	98.9%	
